For the assay, the target named is Recombinant human cholesteryl ester transfer protein (CETP) mutant N341Q (human) (UniProt P11597). Nature of the assay: optimized negative-staining EM (OpNS); purified CETP alone, incubated 1 h at 37 °C with inhibitor buffer or with about 10 uM Torcetrapib, Dalcetrapib or Anacetrapib; single particles imaged; both purified.

No constants are given. Whether binding was seen depends on the method and setting.

B1: Recombinant human cholesteryl ester transfer protein (CETP) mutant N341Q (protein, UniProt P11597 18-493)
chain: CSKGTSHEAGIVCRITKPALLVLNHETAKVIQTAFQRASYPDITGEKAMMLLGQVKYGLHNIQISHLSIASSQVELVEAKSIDVSIQNVSVVFKGTLKYGYTTAWWLGIDQSIDFEIDSAIDLQINTQLTCDSGRVRTDAPDCYLSFHKLLLHLQGEREPGWIKQLFTNFISFTLKLVLKGQICKEINVISNIMADFVQTRAASILSDGDIGVDISLTGDPVITASYLESHHKGHFIYKNVSEDLPLPTFSPTLLGDSRMLYFWFSERVFHSLAKVAFQDGRLMLSLMGDEFKAVLETWGFNTNQEIFQEVVGGFPSQAQVTVHCLKMPKISCQNKGVVVQSSVMVKFLFPRPDQQHSVAYTFEEDIVTTVQASYSKKKLFLSLLDFQITPKTVSNLTESSSESVQSFLQSMITAVGIPEVMSRLEVVFTALMNSKGVSLFDIINPEIITRDGFLLLQMDFGFPEHLLVDFLQSLS
Consider B1, for which the binding result is “no binding”.

These data come from publication PMC6239860.
